Permeability data for 1 compound are collected here from ChEMBL document CHEMBL6182836 (RSC Med Chem, 2025).

For the series the following is noted: mouse, 24 h.

Molecules are shown by their SMILES.

On to `COc1cc2c(cc1OC)C(=O)C(CC1CCN(Cc3ccccc3)CC1)C2` (stereo unspecified) [DONEPEZIL], for which the permeability amounted to 78%.
